# Results as given in ChEMBL document CHEMBL4303122, “Identification of potential treatments for COVID-19 through artificial intelligence-enabled phenomic analysis of human cells infected with SARS-CoV-2” (2020).
# Over roughly 1,600 compounds, “Hit score” has its median near 0.13; the highest 2% begin near 0.46. Some of the results follow. Where a SMILES comes first, the peptide text is derived from it. Bridges are numbered along the chain shown (N, C = ends). [ ]: non-standard residue; d: D form. hArg = N=C(N)NCCCC[C@H](N)C(=O)O; Mpa = O=C(O)CCS
# System: SARS-CoV-2
# Test: Antiviral activity against SARS-CoV-2 (USA-WA1/2020 strain) measured by imaging in HRCE cells at MOI 0.4 after 96 hrs (reported as hit score from 0-1 for on-disease vs off-disease activity: scores >0.6 considered hits)
# Format: functional, Homo sapiens
row,SMILES,Hit score
1,COc1cc(/C=C/C(=O)N2CCN(CC(=O)N3CCCC3)CC2)cc(OC)c1OC [CINEPAZIDE],0.05308
2,CC(=O)N[C@H]1[C@H]([C@H](O)[C@H](O)CO)OC(C(=O)O)=C[C@@H]1NC(=N)N [ZANAMIVIR],0.0708
3,COc1ccc(CN(CCN(C)C)c2ccccn2)cc1 [PYRILAMINE],0.07513
4,Cn1c(=O)cc(N2CCC[C@@H](N)C2)n(Cc2cc(F)ccc2C#N)c1=O [TRELAGLIPTIN],0.1171
5,C[C@]12C=CC(=O)C=C1CC[C@@H]1[C@@H]2[C@@H](O)C[C@@]2(C)[C@H]1CC[C@]2(O)C(=O)O [LOTEPREDNOL],0.1972
6,COc1cc2c(Oc3ccc4[nH]c(C)cc4c3F)ccnc2cc1OCC1(N)CC1 [CATEQUENTINIB],0.165
7,CCC(=O)O[C@]1(C(=O)CCl)[C@@H](C)C[C@H]2[C@@H]3C[C@H](F)C4=CC(=O)C=C[C@]4(C)[C@@]3(F)[C@@H](O)C[C@@]21C [HALOBETASOL PROPIONATE],0.1488
8,COc1ccc(Cc2nccc3cc(OC)c(OC)cc23)cc1OC [PAPAVERINE],0.03666
9,N=C(N)NCCCC[C@@H]1NC(=O)CCSSC[C@@H](C(N)=O)NC(=O)[C@@H]2CCCN2C(=O)[C@H](Cc2c[nH]c3ccccc23)NC(=O)[C@H](CC(=O)O)NC(=O)CNC1=O [EPTIFIBATIDE] ([Mpa][hArg]GDWPC-NH2; disulfide 1-7),-0.04529
10,c1ccc(C2CN3CCSC3=N2)cc1 (stereo not given) [TETRAMISOLE],0.1521
11,COC(=O)CC1CC(c2ccc(O)cc2)=NO1 (stereo not given),0.2758
12,CC(=O)OCC(COC(C)=O)OC(C)=O [TRIACETIN],0.08279
13,N#Cc1c(N2C[C@@H]3NCCO[C@H]3C2)c(F)cc2c(=O)c(C(=O)O)cn(C3CC3)c12 [FINAFLOXACIN],0.04952
14,O=C(NC(=O)c1c(F)cccc1F)Nc1cc(Cl)c(OC(F)(F)C(F)C(F)(F)F)cc1Cl (stereo not given) [LUFENURON],0.138
15,NC(=O)N1c2ccccc2C=Cc2ccccc21 [CARBAMAZEPINE],0.2353
16,COC(=O)N[C@H](C(=O)N1CC2(CC2)C[C@H]1c1nc(-c2ccc3c(c2)C(F)(F)c2cc(-c4ccc5[nH]c([C@@H]6[C@H]7CC[C@H](C7)N6C(=O)[C@@H](NC(=O)OC)C(C)C)nc5c4)ccc2-3)c[nH]1)C(C)C,-0.2222
17,C1=Cc2cccc(OCC3CNCCO3)c2C1.Cl (stereo not given) [INDELOXAZINE HYDROCHLORIDE],-0.04248
18,C[C@H](N/C(=N/C#N)Nc1cccc2ncccc12)c1ccccc1,0.1517
19,COc1c(O[C@@H]2O[C@H](CO)[C@@H](O)[C@H](O)[C@H]2O)cc2c(c1OC)-c1ccc(SC)c(=O)cc1[C@@H](NC(C)=O)CC2 [THIOCOLCHICOSIDE],0.1984
20,CC(C)N(CCNC(=O)CN1CCCC1=O)C(C)C,0.1027
21,CCC(c1ccccc1)c1c(O)c2ccccc2oc1=O (stereo not given) [PHENPROCOUMON],0.1829
22,CC(=O)N[C@@H](CC(C)C)C(=O)O,0.1332
23,Nc1nc(=O)c2nc(CNc3ccc(C(=O)N[C@@H](CCC(=O)O)C(=O)O)cc3)cnc2[nH]1 [FOLIC ACID],0.1591
24,CC(C)(C)NC(=O)[C@@H]1C[C@@H]2CCCC[C@@H]2CN1C[C@@H](O)[C@H](Cc1ccccc1)NC(=O)[C@H](CC(N)=O)NC(=O)c1ccc2ccccc2n1,0.2021

row,SMILES,Hit score
1,C#C[C@]1(OC(=O)CCCCCC)CC[C@H]2[C@@H]3CCC4=CC(=O)CC[C@@H]4[C@H]3CC[C@@]21C,0.06115
2,CN1[C@@H]2CC[C@H]1C[C@@H](OC(=O)c1c[nH]c3ccccc13)C2 [TROPISETRON],0.2296
3,CC(C)NCC(O)COc1ccc(COCCOC(C)C)cc1 (stereo not given) [BISOPROLOL],0.1972
4,CN(C)Cc1c(C(=O)NCCOc2ccc(C(=O)NO)cc2)oc2ccccc12 [ABEXINOSTAT],0.02119
5,O=C1CN2Cc3c(ccc(Cl)c3Cl)N=C2N1 [ANAGRELIDE],0.1678
6,Nc1nc(Cl)nc2c1ncn2[C@@H]1O[C@H](CO)[C@@H](O)[C@@H]1F [CLOFARABINE],-0.04584
7,COc1ccc(-c2cc(=O)c3c(O)cc(O)cc3o2)cc1O [DIOSMETIN],0.3872
8,CC(C)(C)NCC(O)c1cc(Cl)c(N)c(Cl)c1 (stereo not given) [CLENBUTEROL],-0.07437
9,CC1(C)S[C@@H]2[C@H](NC(=O)[C@H](NC(=O)N3CCN(S(C)(=O)=O)C3=O)c3ccccc3)C(=O)N2[C@H]1C(=O)O [MEZLOCILLIN],0.1621
10,OC(CCN1CCCCC1)(c1ccccc1)C1CC2C=CC1C2 (stereo not given) [BIPERIDEN],0.3402
11,CCN(CC)CC#CCOC(=O)C(O)(c1ccccc1)C1CCCCC1 (stereo not given) [OXYBUTYNIN],0.1254
12,Cc1ncc([N+](=O)[O-])n1CCO [METRONIDAZOLE],0.1151
13,CN(C)CCOC1=Cc2ccccc2Sc2ccc(Cl)cc21 [ZOTEPINE],-0.05771
14,CC(C)(C)NCC(O)COc1cc(Cl)ccc1Cl (stereo not given) [CLORANOLOL],0.4962
15,CC(C)N1CCN(c2ccc(OCC3COC(Cn4cncn4)(c4ccc(Cl)cc4Cl)O3)cc2)CC1 (stereo not given) [TERCONAZOLE],0.03816
16,CC[C@H]1OC(=O)[C@H](C)C(=O)[C@H](C)[C@@H](O[C@@H]2O[C@H](C)C[C@H](N(C)C)[C@H]2O)[C@](C)(OC)C[C@@H](C)C(=O)[C@H](C)[C@H]2N(CCCCn3cnc(-c4cccnc4)c3)C(=O)O[C@]12C [TELITHROMYCIN],0.2926
17,CN1C[C@H](C(=O)N[C@]2(C)O[C@@]3(O)[C@@H]4CCCN4C(=O)[C@H](Cc4ccccc4)N3C2=O)C[C@@H]2c3cccc4[nH]cc(c34)C[C@H]21 [DIHYDROERGOTAMINE],-0.0003044
18,COc1ccc2[nH]cc(CCNC(C)=O)c2c1 [MELATONIN],0.1403
19,O=C([O-])c1ccccc1O.[Na+] [SODIUM SALICYLATE],0.1888
20,Cc1ccc(C(=O)c2cc(O)c(O)c([N+](=O)[O-])c2)cc1 [TOLCAPONE],0.0005284
21,CCCC(CCC)C(=O)O[C@H]1C[C@H]2CC[C@@H](C1)[N+]2(C)C.[Br-] [ANISOTROPINE METHYLBROMIDE],0.2494
22,COc1ccc(C(=O)NCc2cccnc2)cc1C(=O)NCc1cccnc1 [PICOTAMIDE],0.2287
23,CC(=O)N[C@@H](CC(=O)N[C@@H](CCC(=O)O)C(=O)O)C(=O)O [SPAGLUMIC ACID],0.2385
24,Cc1ccc(S(=O)(=O)NC(=O)NN2CC3CCCC3C2)cc1 (stereo not given) [GLICLAZIDE],0.08068

# By substructure: the entries above with a nitro group on carbon (2)
row,SMILES,Hit score
12,Cc1ncc([N+](=O)[O-])n1CCO [METRONIDAZOLE],0.1151
20,Cc1ccc(C(=O)c2cc(O)c(O)c([N+](=O)[O-])c2)cc1 [TOLCAPONE],0.0005284

# Next part

row,SMILES,Hit score
1,CCC(C)C(C(=O)OCC[N+](C)(CC)CC)c1ccccc1 (stereo not given) [VALETHAMATE],0.1761
2,C=C1CC[C@H](O)C/C1=C/C=C1\CCC[C@]2(C)[C@@H]([C@H](C)CCCC(C)C)CC[C@@H]12 [CHOLECALCIFEROL],0.2186
3,COc1nc(C)nc(Cl)c1NC1=NCCN1 [MOXONIDINE],0.157
4,CC(C)OC(=O)CCC/C=C\C[C@@H]1[C@@H](/C=C/C(F)(F)COc2ccccc2)[C@H](O)C[C@@H]1O [TAFLUPROST],0.14
5,CCn1cc(C(=O)O)c(=O)c2cnc(N3CCNCC3)nc21 [PIPEMIDIC ACID],0.2033
6,COc1cc2nc(N3CCN(C(=O)c4ccco4)CC3)nc(N)c2cc1OC [PRAZOSIN],0.07667
7,NCCS(=O)(=O)O [TAURINE],0.2637
8,Oc1c(I)cc(I)c2cccnc12 [IODOQUINOL],0.1688
9,O=C(CCCN1CC=C(n2c(=O)[nH]c3ccccc32)CC1)c1ccc(F)cc1 [DROPERIDOL],0.1717
10,CCN(CC)CCNC(=O)c1cc(S(C)(=O)=O)ccc1OC [TIAPRIDE],0.1795
11,CCn1cc(C(=O)O)c(=O)c2ccc(C)nc21 [NALIDIXIC ACID],0.03233
12,CCCCCC(C)N (stereo not given) [TUAMINOHEPTANE],0.3062
13,COc1ccc2cc(CCC(C)=O)ccc2c1 [NABUMETONE],0.01673
14,C#CCN(C)Cc1ccccc1 [PARGYLINE],0.1862
15,Oc1cc(Cl)ccc1Oc1ccc(Cl)cc1Cl [TRICLOSAN],0.1243
16,CN(C)CCc1c[nH]c2ccc(Cn3cncn3)cc12 [RIZATRIPTAN],0.02516
17,OCCN1CCN(CCCN2c3ccccc3Sc3ccc(Cl)cc32)CC1 [PERPHENAZINE],0.1094
18,Nc1ccc(S(=O)(=O)c2ccc(N)cc2)cc1 [DAPSONE],0.2677
19,Nc1ccc(C(=O)NCC(=O)O)cc1 [AMINOHIPPURIC ACID],0.08913
20,CCCCC(=O)O[C@]1(C(=O)CO)[C@@H](C)C[C@H]2[C@@H]3CCC4=CC(=O)C=C[C@]4(C)[C@@]3(F)[C@@H](O)C[C@@]21C [BETAMETHASONE VALERATE],-0.1439
21,N=C(N)NCC1COC2(CCCCC2)O1 (stereo not given),0.1079
22,Cc1ncc(CSSCc2cnc(C)c(O)c2CO)c(CO)c1O [PYRITINOL],0.2567

# At a glance, some entries already given.
row,SMILES,Hit score
16,CN(C)CCc1c[nH]c2ccc(Cn3cncn3)cc12 [RIZATRIPTAN],0.02516
17,OCCN1CCN(CCCN2c3ccccc3Sc3ccc(Cl)cc32)CC1 [PERPHENAZINE],0.1094
18,Nc1ccc(S(=O)(=O)c2ccc(N)cc2)cc1 [DAPSONE],0.2677
19,Nc1ccc(C(=O)NCC(=O)O)cc1 [AMINOHIPPURIC ACID],0.08913

# Some of these compounds in order of length of the SMILES, rising.
row,SMILES,Hit score
21,N=C(N)NCC1COC2(CCCCC2)O1 (stereo not given),0.1079
12,Cc1ncc([N+](=O)[O-])n1CCO [METRONIDAZOLE],0.1151
2,CC(=O)N[C@H]1[C@H]([C@H](O)[C@H](O)CO)OC(C(=O)O)=C[C@@H]1NC(=N)N [ZANAMIVIR],0.0708
